Results are given in words; binding and its absence hold for the method and conditions named. Binding seen in cells or lysates may run through a third protein. Some entries that bind do so weakly or less than the wild type. Sequences can lack the tags named with a protein.
T1: GPA1-nLuc (canonical Arabidopsis Gα subunit GPA1 fused to the N-terminal luciferase fragment) (Arabidopsis thaliana) (UniProt P18064)
T1 sequence: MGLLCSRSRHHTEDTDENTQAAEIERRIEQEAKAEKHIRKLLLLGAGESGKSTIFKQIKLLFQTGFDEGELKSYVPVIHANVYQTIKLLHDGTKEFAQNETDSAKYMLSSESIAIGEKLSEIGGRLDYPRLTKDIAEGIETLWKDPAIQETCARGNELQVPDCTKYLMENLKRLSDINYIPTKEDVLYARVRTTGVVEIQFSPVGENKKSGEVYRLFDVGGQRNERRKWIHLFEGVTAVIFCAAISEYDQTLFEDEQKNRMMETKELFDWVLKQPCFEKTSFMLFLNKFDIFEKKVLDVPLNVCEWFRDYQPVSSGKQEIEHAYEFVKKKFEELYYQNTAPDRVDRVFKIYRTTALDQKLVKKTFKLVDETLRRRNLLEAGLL

B1: AtGCR1-cLuc (Arabidopsis thaliana GCR1 fused to the C-terminal luciferase fragment) (receptor, UniProt O04714 1-326)
chain: MSAVLTAGGGLTAGDRSIITAINTGASSLSFVGSAFIVLCYCLFKELRKFSFKLVFYLALSDMLCSFFLIVGDPSKGFICYAQGYTTHFFCVASFLWTTTIAFTLHRTVVKHKTDVEDLEAMFHLYVWGTSLVVTVIRSFGNNHSHLGPWCWTQTGLKGKAVHFLTFYAPLWGAILYNGFTYFQVIRMLRNARRMAVGMSDRVDQFDNRAELKVLNRWGYYPLILIGSWAFGTINRIHDFIEPGHKIFWLSVLDVGTAALMGLFNSIAYGFNSSVRRAIHERLELFLPERLYRWLPSNFRPKNHLILHQQQQQRSEMVSLKTEDQQ
B2: RGS1-cLuc (7TM RGS1 protein fused to the C-terminal luciferase fragment) (protein, UniProt Q8H1F2 1-459)
chain: MASGCALHGGCPSDYVAVAISVICFFVLLSRSVLPCLIHKAPRTNSSSFWIPVIQVISSFNLLFSIMMSVNLLRFRTKHWWRYCYLWAVWIEGPLGFGLLMSCRITQAFQLYFIFVKKRLPPVKSYIFLPLVLLPWIFGAAIIHATKPLNDKCHMGLQWTFPVAGLHALYVLALIAFTRAVRHVEFRFDELRDLWKGILVSATSIVIWVTAFVLNEIHEEISWLQVASRFVLLVTGGILVVVFFSISSNQPLLSQISLKKRQNFEFQRMGQALGIPDSGLLFRKEEFRPVDPNEPLDKLLLNKRFRHSFMEFADSCYAGETLHFFEEVYEHGKIPEDDSIRRIYMARHIMEKFIVAGAEMELNLSHKTRQEILTTQDLTHTDLFKNALNEVMQLIKMNLVRDYWSSIYFIKFKEEESCHEAMHKEGYSFSSPRLSSVQGSDDPFYQEHMSKSSRCSSPG

Biological target: T1, GPA1-nLuc (canonical Arabidopsis Gα subunit GPA1 fused to the N-terminal luciferase fragment) (Arabidopsis thaliana)
Test: split reporter; split luciferase; GPA1-nLuc with cLuc fusions, luminescence compared with the GPA1-nLuc + EV-cLuc parent vector control; performed 3 independent times

Binder | binding
B1 | binds
B2 | binds

Reference: article PMC11843928
